# Percent effect of library compounds

Mtb cholesterol medium: 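Phenotypic screen: M. tuberculosis growth, cholesterol and DPPC medium, 4 days; the read-out is not stated. Concentration: 50 µM. Direction is inferred from retests: higher values go with more growth inhibition. About 69,000 compounds were tested under these conditions; 0.54% (about 370) showed 50% or more at least once.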
Mtb glucose medium: 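Growth of Mycobacterium tuberculosis over 3 days (7H9 medium with glucose and tyloxapol); the read-out is not stated. Tested at 50 µM. Direction is inferred from retests: higher values go with more growth inhibition. About 69,000 compounds were tested under these conditions; 1.1% (about 760) showed 50% or more at least once.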

Values are the deposited “Percent Effect”, in %. The record does not define 0% and 100%; most values in the screen are far below 50% and negative numbers occur (in some assays of this library far below -100). This is an unselected part of the compounds tested. Two or more numbers in one place are separate tests of the same structure; such repeats can differ widely.

| structure | Mtb cholesterol medium | Mtb glucose medium |
|---|---|---|
| `Cl.O=C(c1cccc(F)c1)N1CCCC1c1ncc2c(n1)CCNC2` (configuration not stated) | 9.527 | 41.89 |
| `Cc1c(NC(=O)CN2CCC(Oc3cnccn3)CC2)cnn1C` | 11.24 | 11.1 |
| `O=C1CCCN1CCc1noc(-c2ccc(Cl)cc2)n1` | -2.424 and -4.233 | -13.18 |
| `CN1CC2(CCN(C(=O)c3ccc4c(=O)n(C)cnc4c3)C2)OC1=O` (configuration not stated) | -1.948 and -36.33 | -47.29 |
| `CNC(=O)Nc1cnc2cc(Cl)ccc2c1O` | -16.68 | -16.78 |
| `CCOCC(=O)Nc1ncn(Cc2cccc(Br)c2)n1` | -35.45 | -14.83 |
| `O=C(O)C(F)(F)F.[H][C@]12CCN(CCOC)[C@@]1([H])CCC(COCC(=O)N1CCCC1)O2` (some centres not stated) | 2.874 | -27.85 |
| `NC(=O)c1ccc(S(=O)(=O)NCCc2ccccn2)cc1` | -8.835 | -25.03 and -2.903 |
| `CCc1nccn1-c1nccnc1C1CCN(C(=O)COC)CC1` | 4.281 | 26.91 |
| `Cc1cc2[nH]c(=O)oc2cc1S(=O)(=O)N1CCC(N2CCCC2=O)CC1` | -38 | 6.189 |
| `COc1cccc(CC2CCCN2CC(N)=O)c1` (configuration not stated) | -0.5121 | -10.19 |
| `[H][C@]12CC[C@]([H])(C1)[C@H](Nc1cc(CC)nc3ccnn13)C2` | 18.91 | 31.9 |
| `O=C(CCc1ccncc1)N1CCCC(n2cccn2)C1` (configuration not stated) | 2.533 | 21.15 |
| `Cc1nc(CN2CCC3(CCCN(Cc4ccncc4)C3)C2=O)cs1.O=C(O)C(F)(F)F.O=C(O)C(F)(F)F.O=C(O)C(F)(F)F` (configuration not stated) | -40.57 | -34.75 |
| `O=C(O)C(F)(F)F.O=C(O)C(F)(F)F.c1csc(CN2CCC3(CCCN3CC3CC3)CC2)n1` | 2.146 | -7.39 and -4.96 |
| `Cn1cccc(NC(=O)COc2ccc(Cl)cc2)c1=O` | -6.796 | -5.4 and 6.946 |
| `CN(CC1CCOCC1)C(C(=O)O)c1cccc(F)c1F` (configuration not stated) | -9.454 | -8.847 |
| `CCOCCNC(=O)c1cnc(Sc2nccn2C)c(Cl)c1` | 0.2451 | 4.295 |
| `Cc1ccc(N2CCN(C(=O)C(O)c3cccc(Cl)c3)CC2=O)cc1` (configuration not stated) | 15.07 | 8.031 |
| `CC[C@H](Cn1ncc2ccccc2c1=O)NC(=O)c1ccccn1` | -5.542 | 4.779 |
| `[H][C@@]12CS(=O)(=O)C[C@]1([H])N(C(=O)Nc1ccc(Cl)cc1)CCN2C(=O)CC` | 4.217 | 12.55 |
| `CCC(C)NC(=O)c1nnn(-c2cccc3c2CCN(C)C3)c1C` (configuration not stated) | -10.36 and -16.96 | -3.419 |
| `COCCC(=O)NCCc1nc(N(C)C)ncc1-c1ccncc1` | 0.442 and 12.62 | -19.51 |
| `CCOc1ncccc1NC(=O)NC1CCN(C(=O)C2CC2)CC1` | 9.222 | 14.62 |
| `COc1ccccc1CN1CC(O)CN(S(=O)(=O)C(C)C)CC1=O` (configuration not stated) | -17.7 | -24.34 |
| `O=C(Nc1cccnc1)C1CCCN(c2cc(-n3cccn3)ncn2)C1` (configuration not stated) | 4.4 | 23.87 and 23.91 |
| `Cn1cc(NC(=O)N2CCC(c3ccccc3)CC2)ccc1=O` | 4.326 | 23.46 |
| `O=C1CC2(CCCC2)C(=O)N1CC(O)COCc1ccccc1F` (configuration not stated) | -37.81 | -30.28 |
| `CNC(=O)[C@@H]1[C@@H](OC(=O)Nc2ccccc2)C(=O)N(C)C12CCNCC2` | 4.519 | 17.44 |
| `Cc1cccc(-c2ccc(C(=O)NCC3CCOC3)c(=O)[nH]2)c1` (configuration not stated) | 14.48 | 23.21 |
| `CCOCc1nc2c(c(N3CCN4CCCC4C3)n1)CCNCC2` (configuration not stated) | 20.79 | 29.93 |
| `O=C(NCCn1ccnc1)c1csc2c1CCCC2` | -23.38 | -17.49 |
| `Cc1nc(C)c(CNC(=O)NC(c2nnc3n2CCC3)C(C)C)s1` (configuration not stated) | 3.598 and 4.244 | 4.021 |
| `O=C(C1CC1)N1CC[C@H](O)[C@@H]1Cc1ccccc1` | 28.91 | 0.854 |
| `COc1ccc(N2CCC(N3CCOC(C(F)(F)F)C3)CC2)cc1` (configuration not stated) | 1.701 | 11.1 |
| `O=C(NC(CC(F)(F)F)c1ccc(Cl)cc1)c1nc(=O)[nH][nH]1` (configuration not stated) | 15.86 | 1.34 |
| `Cn1ccnc1-c1cccc(NC(=O)NCCCO)c1` | 9.951 | 11.67 and -0.2832 |
| `Cc1nc(CNc2nc3c(s2)c(C)nn3C)cs1` | 14.18 and 1.363 | 21.14 and 1.926 |
| `COc1ccccc1OCCNC(=O)CN1CCN(C)CC1C` (configuration not stated) | -0.9233 | 0.5742 |
| `COc1cccc(C(=O)NC(CC(=O)O)c2cccs2)c1OC` (configuration not stated) | -9.279 | -6.453 |
| `CCn1cc(CN2CCCC(COc3ccc(F)cc3)C2)cn1` (configuration not stated) | 11.73 | 5.936 and 12.93 |
| `Cc1nn(C)c2c(N3CCN(C)CC3)nc(C3CC3)nc12` | 12.31 | 21.8 and 35.29 |
| `CCc1ncc(C(=O)N2CC(Oc3ccccc3Cl)C2)cn1` | 7.534 | 11.32 |
| `O=C(Cc1ccsc1)N1CCN(CC2CC2)c2ncccc2C1.O=C(O)C(F)(F)F` | -22.65 and -7.467 | -12.66 |
| `CCNC(=O)NCCCn1nc2ccccn2c1=O` | -20.59 | 24.12 |
| `Cc1cnn(CC2CCCN2CC(=O)N(C)Cc2cnn(C)c2)c1` (configuration not stated) | 11.79 | -4.281 and 0.3247 |
| `CC(C)(C)OC(=O)N[C@@H]1C[C@@H](O)CN(C(=O)c2ccc(F)cc2)C[C@H]1O` | -26.55 | -17.22 |
| `Cc1cc(CN2CCOCS2(=O)=O)ccc1F` | -6.255 | -16.79 |
| `CN(C)CCN(C)C(=O)c1ccccc1-n1cc(CN(C)C)cn1` | 2.083 | -7.181 |
| `CC(C)NC(=O)N(Cc1cc(O)nc2ccccc12)C(C)C` | -22.38 | -16.99 |
| `COCCN1CCC(CN(CC2CCCO2)C(=O)Cc2cccs2)CC1` (configuration not stated) | 34.81 | 21.82 |
| `COC(=O)[C@@H]1Cc2ncn(C)c2CN1S(=O)(=O)c1cccs1` | 1.194 | 4.589 and -3.514 |
| `Cc1cs/c(=N/C(=O)c2csc(NCC(C)C)n2)[nH]1` | 40.91 | 30.99 |
| `c1ccc(-c2cnc(CNCC3CCCN3c3cccnn3)o2)cc1` (configuration not stated) | -23.88 | 1.991 |
| `CC(C)c1noc(-c2cccc(OCC(N)=O)c2)n1` | 2.603 | 7.927 |
| `COc1ccc(C(C)NCCc2ccc(NC(C)=O)cc2)c(OC)c1` (configuration not stated) | 3.208 | -20.22 |
| `Cc1cnc(C2(C)CCN(Cc3csc(C)n3)CC2)s1` | 10.02 | -0.08085 |
| `[H][C@@]12CN(Cc3ccccc3F)C[C@]1([H])N(CCCN1CCOCC1)C(=O)O2` | -19.06 and -13.57 | -32.1 |
| `O=C(O)C(F)(F)F.O=C(O)C(F)(F)F.[H][C@@]12CO[C@@H](CN(C)Cc3ccco3)[C@]1([H])CCN(Cc1nccs1)C2` | -30.47 | -34.94 and -9.353 |
| `Cc1occc(=O)c1OCC(=O)N1CCc2ccccc2C1` | -4.715 | 47.15 |
| `O=C(O)C(F)(F)F.[H][C@@]12CN(Cc3c(C)noc3C)C[C@]1([H])CN(C(=O)c1cnccn1)C2` | 8.745 | -26.21 and 3.134 |
| `O=C(Nc1ccccc1-c1cccs1)N1CCOCC1` | 8.089 | 4.291 |
| `COCCN(Cc1sccc1C)C(=O)C1CCN(C(C)C)CC1` | 9.574 | 31.25 |
| `O=C(CO)N1CCCn2nnc(Cn3cccn3)c2C1` | -4.631 | 18.43 |
| `CC(C)n1ccnc1C1CCN(C(=O)c2ccc(SCCO)cc2)CC1` | -8.952 and -12.57 | -19.78 |
| `OCC1CCCCN1c1ccc(-c2nc(-c3ccccc3F)no2)cn1` (configuration not stated) | 3.162 | -11.44 |
| `c1ccc(Cn2cc(CNCC3CCCN3c3cccnn3)cn2)cc1` (configuration not stated) | -1.627 | -14.32 |
| `CC(C)N1CCC(CNC(=O)COc2ccc(F)cc2F)C1` (configuration not stated) | 2.079 | -30.07 and 2.449 |
| `COc1cccc(OCC(=O)NCc2ccc3[nH]c(=O)[nH]c3c2)c1` | 3.538 | 11.46 |
| `CC(=O)N1CCCC1c1cccc(Oc2ccccc2F)n1` (configuration not stated) | 4.819 | 10.76 |
| `[H][C@]12CC[C@](O)(CC1)C(CN1CCOCC1)N2C(=O)N1CCOCC1` (some centres not stated) | -14.16 | -7.203 |
| `O=C(NC1CCN(c2ccc(-c3ccccc3F)nn2)C1)c1ccc[nH]1` (configuration not stated) | 8.217 | 37.81 and 11.19 |
| `O=C(NCC1CCOC1)N1CCN(Cc2ccc3c(c2)OCO3)CC1` (configuration not stated) | 14.11 | 29.3 |
| `COCc1nc(N(C)C)ncc1C(=O)Nc1ccn(C)n1` | 11.63 | 17.31 |
| `CN(Cc1nc(N)c2ccccc2n1)C1CCCN(c2cccnn2)C1` (configuration not stated) | -8.592 | 50.84 |
| `O=C(Cc1cccs1)N1Cc2nc(CN3CCCC3)oc2C1` | 6.949 | -29.63 |
| `COc1c(CNCC(O)COc2ccc3c(c2)OCO3)c(C)nn1C` (configuration not stated) | -5.366 | 15.31 and 0.5359 |
| `Cc1cnc(C(=O)N2CCCn3c(nc(CN(C)C)cc3=O)C2)cn1.O=C(O)C(F)(F)F` | -26.84 | -74.69 and -7.445 |
| `CC(C)S(=O)(=O)N1CCOC(CCc2ccccc2)C1` (configuration not stated) | 5.359 | -27.82 |
| `CN1CCN(C(=O)Cn2ccc3c(Cl)cccc32)CC1` | -23.61 | -31.06 |
| `CN1CCOC(CNC(=O)C2(c3cccc(Cl)c3)CC2)C1` (configuration not stated) | -14.76 | -7.354 |
| `CCCc1nnc(N2CCN(Cc3ccccc3OC)CC2)o1` | -1.077 and -33.63 | -16.89 |
| `CCC(=O)N1CCCC(Cn2cc(-c3ccc(F)cc3)nn2)C1` (configuration not stated) | 5.856 | 15.89 and 8.704 |

Once more, the final 7:

structure	Mtb cholesterol medium	Mtb glucose medium
COc1c(CNCC(O)COc2ccc3c(c2)OCO3)c(C)nn1C (configuration not stated)	-5.366	15.31 and 0.5359
Cc1cnc(C(=O)N2CCCn3c(nc(CN(C)C)cc3=O)C2)cn1.O=C(O)C(F)(F)F	-26.84	-74.69 and -7.445
CC(C)S(=O)(=O)N1CCOC(CCc2ccccc2)C1 (configuration not stated)	5.359	-27.82
CN1CCN(C(=O)Cn2ccc3c(Cl)cccc32)CC1	-23.61	-31.06
CN1CCOC(CNC(=O)C2(c3cccc(Cl)c3)CC2)C1 (configuration not stated)	-14.76	-7.354
CCCc1nnc(N2CCN(Cc3ccccc3OC)CC2)o1	-1.077 and -33.63	-16.89
CCC(=O)N1CCCC(Cn2cc(-c3ccc(F)cc3)nn2)C1 (configuration not stated)	5.856	15.89 and 8.704

Source: ChEMBL document CHEMBL3988442, “University of Dundee, Small-Polar-MMV Screening Library” (2021).